The record followed here is article PMC4411066.

By UniProt entry, the sequences of proteins in these tests, tags left out. Residues count along the entry.
UniProt Q99836: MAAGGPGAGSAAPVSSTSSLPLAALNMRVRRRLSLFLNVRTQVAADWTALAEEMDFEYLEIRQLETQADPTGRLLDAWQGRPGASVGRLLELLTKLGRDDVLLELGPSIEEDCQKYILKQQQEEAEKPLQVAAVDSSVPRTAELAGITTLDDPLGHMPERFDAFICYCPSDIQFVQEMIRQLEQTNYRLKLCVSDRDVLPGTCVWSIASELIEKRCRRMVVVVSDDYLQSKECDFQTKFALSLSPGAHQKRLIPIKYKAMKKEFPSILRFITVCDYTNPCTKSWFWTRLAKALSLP
UniProt O00206, residues 24-839: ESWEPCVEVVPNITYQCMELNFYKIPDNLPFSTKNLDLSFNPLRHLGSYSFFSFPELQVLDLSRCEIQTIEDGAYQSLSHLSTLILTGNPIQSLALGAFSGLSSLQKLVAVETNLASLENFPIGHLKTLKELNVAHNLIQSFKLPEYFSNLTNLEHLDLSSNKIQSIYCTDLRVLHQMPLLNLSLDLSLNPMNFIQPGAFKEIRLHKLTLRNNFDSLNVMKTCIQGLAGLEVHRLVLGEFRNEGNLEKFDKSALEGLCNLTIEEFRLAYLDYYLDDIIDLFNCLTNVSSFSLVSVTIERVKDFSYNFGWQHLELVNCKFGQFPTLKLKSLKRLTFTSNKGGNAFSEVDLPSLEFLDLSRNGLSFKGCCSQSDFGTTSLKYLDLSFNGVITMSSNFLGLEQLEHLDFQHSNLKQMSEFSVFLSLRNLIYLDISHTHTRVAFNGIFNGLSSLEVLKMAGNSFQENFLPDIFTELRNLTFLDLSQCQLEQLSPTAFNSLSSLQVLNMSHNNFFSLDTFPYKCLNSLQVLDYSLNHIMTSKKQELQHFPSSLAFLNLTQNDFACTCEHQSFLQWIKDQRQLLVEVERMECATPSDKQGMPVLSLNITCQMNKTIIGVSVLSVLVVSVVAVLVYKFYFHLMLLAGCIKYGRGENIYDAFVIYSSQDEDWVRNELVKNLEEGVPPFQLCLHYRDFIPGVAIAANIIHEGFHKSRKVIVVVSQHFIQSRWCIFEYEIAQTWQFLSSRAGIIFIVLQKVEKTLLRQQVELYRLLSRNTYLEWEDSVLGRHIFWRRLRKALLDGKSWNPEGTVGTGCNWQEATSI
UniProt P62993: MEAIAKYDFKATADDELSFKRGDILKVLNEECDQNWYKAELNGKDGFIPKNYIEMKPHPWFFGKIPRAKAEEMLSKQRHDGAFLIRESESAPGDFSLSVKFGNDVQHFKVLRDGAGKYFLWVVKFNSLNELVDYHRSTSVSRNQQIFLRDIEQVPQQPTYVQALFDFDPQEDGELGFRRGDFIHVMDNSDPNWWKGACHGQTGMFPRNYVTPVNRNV

Assay [1] deals with MyD88 (human (endogenous in H69)) (UniProt Q99836). As to the kind of experiment: co-IP; H69 cell lysates, cells cultured in the presence or absence of LPS; pre-cleared with Protein A/G sepharose, MyD88 or SOS1 antibody overnight at 4°C; Western blots for Grb2 or TLR4.
Assay [2] has the same target. As to the kind of experiment: condition: only cells cultured in the absence of LPS; FRET or BRET; acceptor photobleach FRET on fixed H69 cells transfected with Myc-tagged Grb2, cultured in the absence of LPS; anti-MyD88 and anti-Myc-tag antibodies with Cy3 or Cy5-conjugated secondary antibodies. Background: In BRET a luciferase serves as donor, and the signal depends on an acceptor being close.

No constants are given. Whether binding was seen depends on the method and setting. Binding seen in cells or lysates may run through a third protein. Some entries that bind do so weakly or less than the wild type.

Regarding “TLR4 (from UniProt O00206 24-839) (receptor)”, the binding entry in assay [1] is listed as “binds”.

Turning to “Myc-tagged Grb2 (from UniProt P62993 1-217)”, the binding entry in assay [2] was “no binding”.

For Grb2 (from UniProt P62993 1-217), in assay [1], the binding result is listed as “binds”.
